PubChem BioAssay AID743458 – Peter MacCallum Cancer Centre, 2014

Screen: 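Find knock-downs that make vorinostat-resistant colon cancer cells sensitive again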 (follow-up of hits)
Cell system: human HCT116-VR colon cancer cells made resistant to vorinostat
Reagent: single siRNA or pool against human genes, 25 nM per single siRNA
Duration: about 72 h after transfection, including 24 h of drug
Challenge: vorinostat, 2.5 µM final, for 24 h
Measured: 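Cell viability by fluorescence and apoptosis by caspase 3/7 luminescence under vorinostat, background-corrected, averaged across two plate copies and given as fold change versus mock transfection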
Direction: viability relative to mock: higher = more living cells than mock; caspase activity relative to mock: higher = more apoptosis than mock
Rule for the call: 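An siRNA counts as active if classed as reduced viability or as caspase activation, otherwise inactive; a hit class needed wells that remained healthy in the absence of drug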
In all, the deposit lists about 1,800 reagents; shown is an unselected part. In the full data, 732 (41%) got an active call. 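Calls are per siRNA reagent; a gene was deemed confirmed only if most of its four siRNAs scored.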 Reagents against one gene are numbered here.

Gene	reagent	viability relative to mock	caspase activity relative to mock	viability hit class	caspase hit class	call
OR6T1 (olfactory receptor family 6 subfamily T member 1)	1	0.24	4.66	reduced viability	caspase activation	active
OR6T1 (olfactory receptor family 6 subfamily T member 1)	2	0.92	2.85	no change	caspase activation	active
OR6T1 (olfactory receptor family 6 subfamily T member 1)	3	0.77	3.33	no change	caspase activation	active
OR6T1 (olfactory receptor family 6 subfamily T member 1)	4	0.92	1.04	no change	no change	inactive
PDX1 (pancreatic and duodenal homeobox 1)	1	0.88	1.97	no change	no change	inactive
PDX1 (pancreatic and duodenal homeobox 1)	2	1.04	0.94	no change	no change	inactive
PDX1 (pancreatic and duodenal homeobox 1)	3	0.82	1.09	no change	no change	inactive
PDX1 (pancreatic and duodenal homeobox 1)	4	0.54	4.17	reduced viability	caspase activation	active
OTUB2 (OTU deubiquitinase, ubiquitin aldehyde binding 2)	1	1.09	1.31	no change	no change	inactive
OTUB2 (OTU deubiquitinase, ubiquitin aldehyde binding 2)	2	0.64	3.69	no change	caspase activation	active
OTUB2 (OTU deubiquitinase, ubiquitin aldehyde binding 2)	3	0.6	3.97	no change	caspase activation	active
OTUB2 (OTU deubiquitinase, ubiquitin aldehyde binding 2)	4	0.84	1.44	no change	no change	inactive
POLR2I (RNA polymerase II subunit I)	1	0.46	5.87	reduced viability	caspase activation	active
POLR2I (RNA polymerase II subunit I)	2	0.6	4.2	no change	caspase activation	active
POLR2I (RNA polymerase II subunit I)	3	0.64	1.96	no change	no change	inactive
POLR2I (RNA polymerase II subunit I)	4	0.63	4.23	no change	caspase activation	active
PPP2R2A (protein phosphatase 2 regulatory subunit Balpha)	1	0.68	3.68	no change	caspase activation	active
PPP2R2A (protein phosphatase 2 regulatory subunit Balpha)	2	0.98	1.51	no change	no change	inactive
PPP2R2A (protein phosphatase 2 regulatory subunit Balpha)	3	0.98	4.31	no change	caspase activation	active
PPP2R2A (protein phosphatase 2 regulatory subunit Balpha)	4	0.96	1.71	no change	no change	inactive
DNAJA2 (DnaJ heat shock protein family (Hsp40) member A2)	1	1.04	1.19	no change	no change	inactive
DNAJA2 (DnaJ heat shock protein family (Hsp40) member A2)	2	0.12	2.11	reduced viability	no change	active
DNAJA2 (DnaJ heat shock protein family (Hsp40) member A2)	3	0.88	1.48	no change	no change	inactive
DNAJA2 (DnaJ heat shock protein family (Hsp40) member A2)	4	0.92	0.84	no change	no change	inactive
LAG3 (lymphocyte activating 3)	1	1	1.58	no change	no change	inactive
LAG3 (lymphocyte activating 3)	2	0.75	1.52	no change	no change	inactive
LAG3 (lymphocyte activating 3)	3	0.44	6.06	reduced viability	caspase activation	active
LAG3 (lymphocyte activating 3)	4	0.72	1.62	no change	no change	inactive
HYKK (hydroxylysine kinase)	1	1.06	1.86	no change	no change	inactive
HYKK (hydroxylysine kinase)	2	0.94	0.96	no change	no change	inactive
HYKK (hydroxylysine kinase)	3	0.24	3.52	reduced viability	caspase activation	active
HYKK (hydroxylysine kinase)	4	0.56	0.9	reduced viability	no change	active
TBC1D2B (TBC1 domain family member 2B)	1	0.94	0.98	no change	no change	inactive
TBC1D2B (TBC1 domain family member 2B)	2	1.12	2.65	no change	caspase activation	active
TBC1D2B (TBC1 domain family member 2B)	3	0.84	1	no change	no change	inactive
TBC1D2B (TBC1 domain family member 2B)	4	0.58	2.21	no change	no change	inactive
GALNT12 (polypeptide N-acetylgalactosaminyltransferase 12)	1	0.56	1.91	reduced viability	no change	active
GALNT12 (polypeptide N-acetylgalactosaminyltransferase 12)	2	0.85	1.4	no change	no change	inactive
GALNT12 (polypeptide N-acetylgalactosaminyltransferase 12)	3	1	1.45	no change	no change	inactive
GALNT12 (polypeptide N-acetylgalactosaminyltransferase 12)	4	0.31	3.83	reduced viability	caspase activation	active
USP45 (ubiquitin specific peptidase 45)	1	0.34	3.04	reduced viability	caspase activation	active
USP45 (ubiquitin specific peptidase 45)	2	0.9	1.84	no change	no change	inactive
USP45 (ubiquitin specific peptidase 45)	3	1.02	1.82	no change	no change	inactive
USP45 (ubiquitin specific peptidase 45)	4	1.04	1.26	no change	no change	inactive
MAGOH (mago homolog, exon junction complex subunit)	1	0.28	3.56	reduced viability	caspase activation	active
MAGOH (mago homolog, exon junction complex subunit)	2	0.47	2.45	reduced viability	no change	active
MAGOH (mago homolog, exon junction complex subunit)	3	0.6	1.6	no change	no change	inactive
MAGOH (mago homolog, exon junction complex subunit)	4	0.18	3.12	reduced viability	caspase activation	active
VMP1 (vacuole membrane protein 1)	1	0.57	5.88	no change	caspase activation	active
VMP1 (vacuole membrane protein 1)	2	0.29	3.68	reduced viability	caspase activation	active
VMP1 (vacuole membrane protein 1)	3	0.8	0.98	no change	no change	inactive
VMP1 (vacuole membrane protein 1)	4	0.69	0.8	no change	no change	inactive
GPR101 (G protein-coupled receptor 101)	1	0.83	1.64	no change	no change	inactive
GPR101 (G protein-coupled receptor 101)	2	0.88	1.98	no change	no change	inactive
GPR101 (G protein-coupled receptor 101)	3	0.61	1.98	no change	no change	inactive
GPR101 (G protein-coupled receptor 101)	4	0.71	1.63	no change	no change	inactive
PIPOX (pipecolic acid and sarcosine oxidase)	1	0.22	2.68	reduced viability	caspase activation	active
PIPOX (pipecolic acid and sarcosine oxidase)	2	0.82	1.47	no change	no change	inactive
PIPOX (pipecolic acid and sarcosine oxidase)	3	0.53	2.16	reduced viability	no change	active
PIPOX (pipecolic acid and sarcosine oxidase)	4	0.76	1.89	no change	no change	inactive

6 neighbouring records from above, quoted:
Gene	reagent	viability relative to mock	caspase activity relative to mock	viability hit class	caspase hit class	call
GPR101 (G protein-coupled receptor 101)	2	0.88	1.98	no change	no change	inactive
GPR101 (G protein-coupled receptor 101)	3	0.61	1.98	no change	no change	inactive
GPR101 (G protein-coupled receptor 101)	4	0.71	1.63	no change	no change	inactive
PIPOX (pipecolic acid and sarcosine oxidase)	1	0.22	2.68	reduced viability	caspase activation	active
PIPOX (pipecolic acid and sarcosine oxidase)	2	0.82	1.47	no change	no change	inactive
PIPOX (pipecolic acid and sarcosine oxidase)	3	0.53	2.16	reduced viability	no change	active
